Laboratory results reported in patent publication US4100274A (Imperial Chemical Industries Limited, priority 1976, dated 1978).

Assay: general procedure: solution-phase peptide synthesis; azide method (t-butyl nitrite/HCl); dicyclohexylcarbodiimide/1-hydroxybenzotriaz
Details: coupling step

In the case of “L-Pyroglutamyl-L-histidyl-L-tryptophyl-L-serine methyl ester”, the step yield is reported as 70%.
